From PMC12335071
These are yes or no findings as the source states them, for the method shown. For some assays here: Binding seen in cells or lysates may run through a third protein. Some entries that bind do so weakly or less than the wild type.

Amino acid sequences for entries named in this document (tags omitted). Residues count along the entry.
UniProt Q14145: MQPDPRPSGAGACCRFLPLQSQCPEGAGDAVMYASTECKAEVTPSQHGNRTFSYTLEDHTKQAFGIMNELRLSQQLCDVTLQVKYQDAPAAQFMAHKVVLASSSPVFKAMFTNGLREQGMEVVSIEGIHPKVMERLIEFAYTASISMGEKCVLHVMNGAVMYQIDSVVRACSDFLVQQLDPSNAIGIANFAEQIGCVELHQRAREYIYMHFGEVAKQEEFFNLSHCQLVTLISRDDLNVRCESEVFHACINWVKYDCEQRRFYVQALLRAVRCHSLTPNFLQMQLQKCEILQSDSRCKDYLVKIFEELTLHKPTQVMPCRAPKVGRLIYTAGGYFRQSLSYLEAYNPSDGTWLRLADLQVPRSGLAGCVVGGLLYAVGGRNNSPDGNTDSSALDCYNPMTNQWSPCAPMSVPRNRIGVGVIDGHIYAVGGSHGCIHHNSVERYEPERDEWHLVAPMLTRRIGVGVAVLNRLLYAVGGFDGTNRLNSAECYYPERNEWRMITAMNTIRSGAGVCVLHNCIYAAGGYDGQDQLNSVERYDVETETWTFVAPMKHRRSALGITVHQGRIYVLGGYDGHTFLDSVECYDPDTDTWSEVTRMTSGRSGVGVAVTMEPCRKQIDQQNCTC
UniProt P46531, residues 19-2555: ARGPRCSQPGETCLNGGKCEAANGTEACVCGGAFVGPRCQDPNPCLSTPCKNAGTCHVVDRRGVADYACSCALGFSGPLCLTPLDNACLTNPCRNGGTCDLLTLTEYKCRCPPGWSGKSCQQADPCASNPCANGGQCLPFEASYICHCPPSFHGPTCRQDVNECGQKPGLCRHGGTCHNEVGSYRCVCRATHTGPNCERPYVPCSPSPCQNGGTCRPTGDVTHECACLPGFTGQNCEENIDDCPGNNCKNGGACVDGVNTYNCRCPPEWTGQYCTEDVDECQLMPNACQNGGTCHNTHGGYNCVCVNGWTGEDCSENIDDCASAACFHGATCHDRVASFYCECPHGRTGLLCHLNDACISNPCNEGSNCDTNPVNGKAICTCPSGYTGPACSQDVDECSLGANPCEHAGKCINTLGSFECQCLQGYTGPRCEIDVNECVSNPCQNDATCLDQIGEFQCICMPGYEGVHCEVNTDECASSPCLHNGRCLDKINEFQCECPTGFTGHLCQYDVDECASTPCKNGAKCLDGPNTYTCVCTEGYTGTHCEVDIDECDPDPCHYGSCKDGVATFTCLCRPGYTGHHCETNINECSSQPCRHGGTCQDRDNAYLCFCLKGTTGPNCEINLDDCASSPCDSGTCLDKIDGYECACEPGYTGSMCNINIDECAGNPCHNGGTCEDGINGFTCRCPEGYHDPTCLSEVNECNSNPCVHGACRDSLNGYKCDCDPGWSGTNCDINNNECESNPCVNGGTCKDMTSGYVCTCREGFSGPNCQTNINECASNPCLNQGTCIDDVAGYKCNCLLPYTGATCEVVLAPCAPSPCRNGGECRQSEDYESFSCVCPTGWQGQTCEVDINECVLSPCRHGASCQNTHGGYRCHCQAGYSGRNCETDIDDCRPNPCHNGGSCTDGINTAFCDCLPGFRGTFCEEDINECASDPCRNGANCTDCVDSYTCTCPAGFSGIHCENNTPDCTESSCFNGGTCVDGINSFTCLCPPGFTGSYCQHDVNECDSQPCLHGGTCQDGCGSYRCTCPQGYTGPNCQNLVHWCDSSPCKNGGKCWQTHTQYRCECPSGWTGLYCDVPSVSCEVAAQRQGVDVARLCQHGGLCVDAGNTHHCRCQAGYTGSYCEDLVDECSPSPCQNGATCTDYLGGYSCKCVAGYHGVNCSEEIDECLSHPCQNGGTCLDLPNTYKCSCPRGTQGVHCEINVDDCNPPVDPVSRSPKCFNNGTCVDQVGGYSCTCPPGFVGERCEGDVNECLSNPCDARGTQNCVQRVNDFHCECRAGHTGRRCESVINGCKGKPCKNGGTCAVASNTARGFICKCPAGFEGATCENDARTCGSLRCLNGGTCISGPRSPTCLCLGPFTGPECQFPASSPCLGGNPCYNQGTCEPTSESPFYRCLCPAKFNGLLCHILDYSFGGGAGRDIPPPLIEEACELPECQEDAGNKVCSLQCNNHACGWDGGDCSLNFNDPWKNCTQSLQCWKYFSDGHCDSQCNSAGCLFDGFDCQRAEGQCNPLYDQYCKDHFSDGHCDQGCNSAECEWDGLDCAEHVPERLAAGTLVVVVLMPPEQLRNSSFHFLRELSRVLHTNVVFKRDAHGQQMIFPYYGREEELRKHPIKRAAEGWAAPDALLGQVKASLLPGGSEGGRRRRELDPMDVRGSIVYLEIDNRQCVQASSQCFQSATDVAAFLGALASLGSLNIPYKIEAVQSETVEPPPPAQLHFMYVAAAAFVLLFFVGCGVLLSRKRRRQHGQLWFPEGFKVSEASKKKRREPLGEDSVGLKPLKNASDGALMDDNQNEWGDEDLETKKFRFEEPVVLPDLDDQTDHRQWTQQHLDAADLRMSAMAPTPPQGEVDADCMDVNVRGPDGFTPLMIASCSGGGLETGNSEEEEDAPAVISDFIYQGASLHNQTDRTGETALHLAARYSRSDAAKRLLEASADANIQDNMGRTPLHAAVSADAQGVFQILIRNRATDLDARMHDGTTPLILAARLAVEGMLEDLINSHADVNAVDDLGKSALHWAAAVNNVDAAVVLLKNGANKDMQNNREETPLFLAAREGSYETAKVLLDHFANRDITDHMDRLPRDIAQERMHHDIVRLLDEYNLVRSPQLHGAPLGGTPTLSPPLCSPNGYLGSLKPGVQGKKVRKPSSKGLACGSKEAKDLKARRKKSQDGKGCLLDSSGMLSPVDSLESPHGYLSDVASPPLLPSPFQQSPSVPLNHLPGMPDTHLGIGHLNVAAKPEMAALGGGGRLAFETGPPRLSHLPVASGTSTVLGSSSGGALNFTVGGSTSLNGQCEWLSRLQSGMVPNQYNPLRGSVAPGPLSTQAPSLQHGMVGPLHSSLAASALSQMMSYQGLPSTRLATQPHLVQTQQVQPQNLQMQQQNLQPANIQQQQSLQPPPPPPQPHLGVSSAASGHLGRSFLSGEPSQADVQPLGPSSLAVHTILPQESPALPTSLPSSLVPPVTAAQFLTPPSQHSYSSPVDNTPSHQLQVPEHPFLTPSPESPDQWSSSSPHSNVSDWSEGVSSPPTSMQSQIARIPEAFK

Legend:
KEAP1-HA-GST (human) = KEAP1-HA-GST (human) (UniProt Q14145); assay: pull-down; GST pull-down (MagneGST Pull-Down System); GST fusion on GST particles, 1 h at 4 °C, His-tagged partner added; eluate analysed by western blot; GST tag alone as control; both purified
Flag-NOTCH1 (human) = Flag-NOTCH1 (human) (UniProt P46531); assay: co-IP; THLE2 cells transfected with Flag-NOTCH1 and HA-KEAP1, under CCl4 exposure; IP buffer 20 mM Tris-HCl pH 7.4, 150 mM NaCl, 1 mM EDTA, 1% Triton X-100; Protein G agarose overnight at 4 °C; immunoblot

Row | binding (KEAP1-HA-GST (human)) | binding (Flag-NOTCH1 (human)) | Substance
1 | binds | – | NOTCH1-His (from UniProt P46531 19-2555) (receptor)
2 | – | binds | HA-tagged KEAP1 (HA-KEAP1) (from UniProt Q14145 1-624)
